Measurements published in PubChem BioAssay AID272 (DTP/NCI, 2004).
The list shows only some results of the screen, not a fair sample: it gathers tests that were run many times, whatever their T/C, doses with no T/C, and many T/C values between a quarter and a half above the control. Other doses and runs of a compound stand elsewhere. T/C is the treated group as % of the vehicle group. Schedules are NCI's codes, taken here to give the interval after Q, in days (D) or hours (H), and the number of doses after X. Some T/C values are followed by the survivors on the day toxicity was checked, most often the fifth; without a count, all were alive then. Some doses were run more than once; the values are given in rising order. Additions like (4×) say how often a value occurs here. Some entries give survivors of the animals treated and no T/C: the source files T/C as zero there, which appears to mark a toxic dose or a test without result, not a measured value. Some doses without a T/C left all or most animals alive at the check, yet need not have been tolerated: survival well below the control is almost never listed, so the zero probably covers shortened survival too. Counts of survivors are from the toxicity check (mostly the fifth day) where no day follows; animals may have died later. Where survival is the endpoint, the PubChem record calls one and a half times the control and up active, and a quarter to a half above the control has no call in these data; cut-offs in other NCI protocols can differ.

Tested on: Lewis lung carcinoma i.m., BDF1 mice, T/C %
Experiment: NCI In Vivo Anticancer Drug Screen. Data for tumor model Lewis Lung Carcinoma (intramuscular) in B6D2F1 (BDF1) mice
Details: vehicle: saline
In short: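 Tumour-bearing mice were dosed with compound, and either their survival or their tumour size was measured. Results were expressed relative to vehicle-treated controls as T/C.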

O=P1(N(CCCl)CCCl)NCCCO1 (configuration not stated)
T/C (T/C endpoint: mean tumor weight (est.), dose: 65.0 mg/kg/injection, schedule: Q01DX001 (ip), evaluated on day 12, higher T/C = larger tumour): 7, 9, 19, 24 (2×), 26, 27, 29 [7 of 8 alive], 32, 36 [6 of 8 alive], 37, 38 [7 of 8 alive], 39, 40 [6 of 8 alive], 42, 47, 48 (2×), 49, 54, 56 % of control [7 of 8 alive]
T/C (T/C endpoint: mean tumor weight (est.), dose: 108.0 mg/kg/injection, schedule: Q01DX001 (ip), evaluated on day 12, higher T/C = larger tumour): 4, 4 [7 of 8 alive], 7, 10 (4×), 10 [7 of 8 alive], 13, 14 (2×), 15, 15 [7 of 8 alive], 20 [7 of 8 alive], 29, 35 % of control
survivor count (T/C endpoint: mean tumor weight (est.), dose: 108.0 mg/kg/injection, schedule: Q01DX001 (ip), higher T/C = larger tumour): 3 of 8 and 4 of 8
T/C (T/C endpoint: mean tumor weight (est.), dose: 180.0 mg/kg/injection, schedule: Q01DX001 (ip), evaluated on day 12, higher T/C = larger tumour): 17 % of control [6 of 8 alive]
survivor count (T/C endpoint: mean tumor weight (est.), dose: 180.0 mg/kg/injection, schedule: Q01DX001 (ip), higher T/C = larger tumour): 1 of 8, 3 of 8, 5 of 8
T/C (T/C endpoint: mean tumor weight, dose: 65.0 mg/kg/injection, schedule: Q01DX001 (ip), evaluated on day 12, higher T/C = larger tumour): 21, 35, 50, 55, 66 % of control
T/C (T/C endpoint: mean tumor weight, dose: 108.0 mg/kg/injection, schedule: Q01DX001 (ip), evaluated on day 12, higher T/C = larger tumour): 8, 13 [7 of 8 alive], 30, 42 % of control
survivor count (T/C endpoint: mean tumor weight, dose: 180.0 mg/kg/injection, schedule: Q01DX001 (ip), higher T/C = larger tumour): 3 of 8
T/C (T/C endpoint: median survival time, dose: 23.0 mg/kg/injection, schedule: Q08DX003 (sc), higher T/C = longer survival): 144 % of control
T/C (T/C endpoint: median survival time, dose: 25.0 mg/kg/injection, schedule: Q03DX010 (ip), evaluated on day 9, higher T/C = longer survival): 121 % of control
T/C (T/C endpoint: median survival time, dose: 25.0 mg/kg/injection, schedule: Q03DX010 (ip), evaluated on day 13, higher T/C = longer survival): 107 % of control
T/C (T/C endpoint: median survival time, dose: 25.0 mg/kg/injection, schedule: Q03DX010 (ip), evaluated on day 60, higher T/C = longer survival): 108 % of control
T/C (T/C endpoint: median survival time, dose: 25.0 mg/kg/injection, schedule: Q03DX010 (ip), evaluated on day 93, higher T/C = longer survival): 121 % of control
T/C (T/C endpoint: median survival time, dose: 31.0 mg/kg/injection, schedule: Q01DX007 (sc), evaluated on day 14, higher T/C = longer survival): 135 % of control
T/C (T/C endpoint: median survival time, dose: 31.0 mg/kg/injection, schedule: Q01DX007 (sc), evaluated on day 62, higher T/C = longer survival): 136 % of control
T/C (T/C endpoint: median survival time, dose: 50.0 mg/kg/injection, schedule: Q01DX001 (ip), evaluated on day 9, higher T/C = longer survival): 130 % of control
T/C (T/C endpoint: median survival time, dose: 50.0 mg/kg/injection, schedule: Q01DX001 (ip), evaluated on day 13, higher T/C = longer survival): 136 % of control
T/C (T/C endpoint: median survival time, dose: 50.0 mg/kg/injection, schedule: Q01DX001 (ip), evaluated on day 60, higher T/C = longer survival): 136 % of control
T/C (T/C endpoint: median survival time, dose: 50.0 mg/kg/injection, schedule: Q01DX001 (ip), evaluated on day 93, higher T/C = longer survival): 130 % of control
T/C (T/C endpoint: median survival time, dose: 50.0 mg/kg/injection, schedule: Q03DX010 (ip), evaluated on day 9, higher T/C = longer survival): 85 % of control
T/C (T/C endpoint: median survival time, dose: 50.0 mg/kg/injection, schedule: Q03DX010 (ip), evaluated on day 13, higher T/C = longer survival): 79 % of control
survivor count (T/C endpoint: median survival time, dose: 50.0 mg/kg/injection, schedule: Q03DX010 (ip), higher T/C = longer survival): 6 of 8 and 8 of 8
T/C (T/C endpoint: median survival time, dose: 50.0 mg/kg/injection, schedule: Q14DX002 (ip), evaluated on day 13, higher T/C = longer survival): 145 % of control
T/C (T/C endpoint: median survival time, dose: 50.0 mg/kg/injection, schedule: Q14DX002 (ip), evaluated on day 60, higher T/C = longer survival): 145 % of control
T/C (T/C endpoint: median survival time, dose: 65.0 mg/kg/injection, schedule: Q01DX001 (ip), evaluated on day 10, higher T/C = longer survival): 145 % of control
T/C (T/C endpoint: median survival time, dose: 65.0 mg/kg/injection, schedule: Q01DX001 (ip), evaluated on day 12, higher T/C = longer survival): 136 % of control
T/C (T/C endpoint: median survival time, dose: 65.0 mg/kg/injection, schedule: Q01DX001 (ip), evaluated on day 36, higher T/C = longer survival): 93 % of control
T/C (T/C endpoint: median survival time, dose: 65.0 mg/kg/injection, schedule: Q01DX001 (ip), evaluated on day 38, higher T/C = longer survival): 131 % of control
T/C (T/C endpoint: median survival time, dose: 65.0 mg/kg/injection, schedule: Q01DX001 (ip), evaluated on day 40, higher T/C = longer survival): 86, 121, 131 % of control
T/C (T/C endpoint: median survival time, dose: 65.0 mg/kg/injection, schedule: Q01DX001 (ip), evaluated on day 41, higher T/C = longer survival): 114 and 155 % of control
T/C (T/C endpoint: median survival time, dose: 65.0 mg/kg/injection, schedule: Q01DX001 (ip), evaluated on day 42, higher T/C = longer survival): 87 [6 of 8 alive], 96 [7 of 8 alive], 98, 108, 109 [7 of 8 alive], 144 % of control
T/C (T/C endpoint: median survival time, dose: 65.0 mg/kg/injection, schedule: Q01DX001 (ip), evaluated on day 43, higher T/C = longer survival): 91 % of control
T/C (T/C endpoint: median survival time, dose: 65.0 mg/kg/injection, schedule: Q01DX001 (ip), evaluated on day 47, higher T/C = longer survival): 101 [7 of 8 alive], 105, 117, 121, 123, 125, 127 (2×), 152 % of control
T/C (T/C endpoint: median survival time, dose: 65.0 mg/kg/injection, schedule: Q01DX001 (ip), evaluated on day 50, higher T/C = longer survival): 121, 122, 124, 136 (2×), 139 % of control
T/C (T/C endpoint: median survival time, dose: 65.0 mg/kg/injection, schedule: Q01DX001 (ip), evaluated on day 62, higher T/C = longer survival): 145 % of control
T/C (T/C endpoint: median survival time, dose: 65.0 mg/kg/injection, schedule: Q01DX001 (ip), evaluated on day 66, higher T/C = longer survival): 178 % of control
T/C (T/C endpoint: median survival time, dose: 65.0 mg/kg/injection, schedule: Q01DX001 (sc), higher T/C = longer survival): 127 % of control
T/C (T/C endpoint: median survival time, dose: 65.0 mg/kg/injection, schedule: Q01DX011 (ip), evaluated on day 42, higher T/C = longer survival): 116, 120, 124 % of control
T/C (T/C endpoint: median survival time, dose: 65.0 mg/kg/injection, schedule: Q01DX011 (ip), evaluated on day 47, higher T/C = longer survival): 112 % of control
T/C (T/C endpoint: median survival time, dose: 65.0 mg/kg/injection, schedule: Q08DX003 (ip), higher T/C = longer survival): 127 % of control [7 of 8 alive]
survivor count (T/C endpoint: median survival time, dose: 86.0 mg/kg/injection, schedule: Q01DX007 (sc), higher T/C = longer survival): 5 of 8
T/C (T/C endpoint: median survival time, dose: 100.0 mg/kg/injection, schedule: Q01DX001 (ip), evaluated on day 9, higher T/C = longer survival): 403 % of control
